Reference: patent publication US4684622A, “Compositions and methods for producing vasodilation and antioxytocic activity” (SmithKline Beckman Corporation, priority 1986, dated 1987)
At least one peptide structure holds a part that was inferred or is arguable (an end, a ring closure or a residue). Numbered stars: 1 amine (or outer) side, 2 acyl side, 3 side chain; on linkers, the order of the positions; unused ones are H or OH. Bridge positions count the residues as written; N and C are the ends. Peptide text beside a SMILES is read from it. X2 = O=C(CC1(S[*:2])CCCCC1)[*:1]

By UniProt entry, the sequences of proteins in these tests, tags left out.
UniProt Q00788, whole entry: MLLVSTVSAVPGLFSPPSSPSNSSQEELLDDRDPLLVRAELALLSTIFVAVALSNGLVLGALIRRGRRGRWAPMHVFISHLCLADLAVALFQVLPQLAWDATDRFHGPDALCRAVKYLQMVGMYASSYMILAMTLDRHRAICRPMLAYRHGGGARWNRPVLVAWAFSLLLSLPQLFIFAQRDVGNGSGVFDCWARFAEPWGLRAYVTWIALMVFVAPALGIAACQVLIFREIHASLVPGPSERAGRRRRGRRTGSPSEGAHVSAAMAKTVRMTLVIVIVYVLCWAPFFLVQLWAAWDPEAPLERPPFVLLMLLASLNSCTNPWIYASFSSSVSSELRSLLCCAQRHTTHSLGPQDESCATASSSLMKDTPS

Molecular target: T1, V2-vasopressin receptors (Rattus norvegicus, UniProt Q00788)
T1 construct: Hydropenic rat; from tissue; host or cells: whole animal (hydropenic rat)
Assay: hydropenic rat protocol in vivo
Procedure: Antagonistic activity of the V1 -vasopressin receptors is determined in a protocol which measures the reversal of the vasopressin-induced contraction of rat thoracic aorta tissue. This is expressed as KB (nM) in the table below. Such anti-pressor activity is confirmed in a similar in vitro protocol using the plasma membranes of rat liver. V2 -vasopressin antagonism is determined as receptor binding ability measured by inhibition of 3H-LVP binding (KB as nM), by inhibition of adenylate cyclase activation by vasopressin in the medullary tissue of hog kidneys (Ki as nM) or in vivo in the hydropenic rat protocol (ED300 μg/kg). These procedures are described in the literature: F. Stassen et al., J. Pharmacology and Experimental Therapeutics, 223 50 (1982); F. Stassen et al., 1st International Conference on Diuretics, Miami, Fla., March (1984). Antagonistic activity at oxytocin receptors is determined in the isolated rat uterus protocol: W. Sawyer, et al., Endocrinology 106 81 (1979); P. Melin, et al., J. of Endocrinology 88 173 (1981).

`COc1ccc(C[C@@H]2NC(=O)CC3(CCCCC3)SSC[C@@H](C(=O)N3CCC[C@H]3C(=O)N[C@@H](CCCNC(=N)N)C(=O)NCC(N)=O)NC(=O)[C@H](CC(N)=O)NC(=O)[C@H](CCC(N)=O)NC(=O)[C@H](Cc3ccccc3)NC2=O)cc1` [G] (Y(Me)FQNCPRG-NH2; linker N-5 via X2) was tested, and the “Rat V2 ED300” value was over 5 mg/kg.
